Laboratory results taken from patent US6525189.
For part of these data: Results from cells or extracts need not show a direct contact. For part of these data: A negative result means that nothing was seen under these conditions.

Sequences of proteins named here, by UniProt entry; tags and fusion partners are left off.
UniProt O14813, whole entry: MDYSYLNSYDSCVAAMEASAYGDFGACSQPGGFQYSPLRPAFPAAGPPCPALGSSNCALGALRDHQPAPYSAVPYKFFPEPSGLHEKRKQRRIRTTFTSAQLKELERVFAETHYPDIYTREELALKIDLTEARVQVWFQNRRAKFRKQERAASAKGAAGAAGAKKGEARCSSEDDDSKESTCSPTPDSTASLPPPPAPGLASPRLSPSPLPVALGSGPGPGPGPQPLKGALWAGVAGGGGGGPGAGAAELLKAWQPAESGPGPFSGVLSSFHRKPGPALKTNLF
UniProt Q62782, whole entry: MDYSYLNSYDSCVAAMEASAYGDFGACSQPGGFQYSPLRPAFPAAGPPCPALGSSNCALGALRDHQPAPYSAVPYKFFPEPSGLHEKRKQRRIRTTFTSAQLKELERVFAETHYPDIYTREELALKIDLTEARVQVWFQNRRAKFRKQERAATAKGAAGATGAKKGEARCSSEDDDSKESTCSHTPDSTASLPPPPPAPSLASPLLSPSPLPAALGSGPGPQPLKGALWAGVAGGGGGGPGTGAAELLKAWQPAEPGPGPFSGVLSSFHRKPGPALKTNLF
UniProt Q62066, whole entry: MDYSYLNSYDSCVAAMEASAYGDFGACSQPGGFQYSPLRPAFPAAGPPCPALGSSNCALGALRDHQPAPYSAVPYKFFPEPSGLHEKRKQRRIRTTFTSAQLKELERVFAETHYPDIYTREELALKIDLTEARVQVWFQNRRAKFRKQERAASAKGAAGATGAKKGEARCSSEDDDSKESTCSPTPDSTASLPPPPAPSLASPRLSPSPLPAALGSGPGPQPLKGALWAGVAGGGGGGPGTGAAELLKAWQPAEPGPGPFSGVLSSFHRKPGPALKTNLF
UniProt O35690, whole entry: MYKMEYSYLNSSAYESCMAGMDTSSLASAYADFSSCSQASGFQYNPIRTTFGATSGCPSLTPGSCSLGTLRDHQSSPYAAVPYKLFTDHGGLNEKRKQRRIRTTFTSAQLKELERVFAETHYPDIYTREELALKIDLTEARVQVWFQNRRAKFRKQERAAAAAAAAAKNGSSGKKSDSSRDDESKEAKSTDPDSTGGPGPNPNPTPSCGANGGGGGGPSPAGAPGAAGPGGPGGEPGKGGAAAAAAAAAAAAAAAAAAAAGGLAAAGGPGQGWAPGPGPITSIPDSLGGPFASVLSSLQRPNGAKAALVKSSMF

How the values were obtained:
[1] = molecular target: Phox2a (SK-N-BE(2)C nuclear extract) (Homo sapiens) (UniProt O14813); test: EMSA; settings: protein in an extract, label: 32P
[2] = molecular target: Phox2a (PC12 nuclear extract) (Rattus norvegicus) (UniProt Q62782); test: EMSA; settings: supershift with Phox2a antibody; protein in an extract; label: 32P
[3] = molecular target: Phox2a (CATH.a nuclear extract) (Mus musculus) (UniProt Q62066); test: EMSA; settings: supershift with Phox2a antibody; protein in an extract; label: 32P
Phox2b = Phox2b (UniProt O35690); test: activity in cells; settings: 1xII-CAT in HeLa and C6; 4xII-CAT 200-300 fold; protein in cells; protein details: expressed from pRC/Phox2b (CMV promoter); only the site is given
[4] = molecular target: Phox2a (SK-N-BE(2)C nuclear extract) (Homo sapiens) (UniProt O14813); test: footprint; settings: Phox2a site revealed by DNase I footprinting; protein source not stated; reporter activity 2.4 in BE cells (Table 2); protein in an extract
[5] = complex comparable to wild type, robust supershift, variant of Domain II (DII)

## CCGCTAGACAAACTTGATTACC (double strand) [Domain II m3]
[1]; complex without antibody reduced but supershift comparable to wild type, variant of Domain II (DII)
  binding result: binds

## CCGCTAGACAAATGTGATGCCC (double strand) [Domain II m4]
[1]; most severe defect, no robust supershifted band, variant of Domain II (DII)
  binding result: no binding

## CCGCTAGACAAATGTGATTACC (double strand) [Domain II (DII)]
[2]
  binding result: binds
[3]
  binding result: binds
Phox2b
  activity on this sequence: active

## CCGCTAGCTAAATGTGATTACC (double strand) [Domain II m2]
[1]; [5]
  binding result: binds

## CCTATAGACAAATGTGATTACC (double strand) [Domain II m1]
[1]; [5]
  binding result: binds

## GAGGGAAAATTGGATTCCCCG (double strand) [PBD3 wild type (-105 to -85)]
[4]
  binding result: binds

## GTGTCATTAGTGCCAATTAGAG (double strand) [PRS1 (HD site of domain IV)]
[1]; dose-dependent supershift, cold PRS1 competes DII complexes more efficiently than cold DII
  binding result: binds
